Taken from: PubChem BioAssay AID1224830 (NIAID, 2016)
Shown is an unselected part of about 18,000 reagents tested. Over the whole deposit, about 2,900 (16%) got an active call. 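Calls are made per well; low scores hint the gene aids the LPS response, high scores that it dampens it.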 Entries without a mark were called inactive. Repeated entries: four replicate wells of each siRNA pool. No sequences are given here.

- Assay: 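Regulators of TLR4 signalling towards TNF-alpha in macrophage-like cells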 (primary screen)
- Cells: human THP-1 monocytic leukaemia cells, TNF dual-luciferase reporter clone, PMA-differentiated to macrophage-like cells
- Knock-down reagent: siRNA pool against human genes, 50 nM
- Timing: LPS for 4 h, given about 3 days after siRNA transfection
- Challenge: bacterial LPS (TLR4 ligand), 10 ng/ml
- Read-out: 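TNF firefly reporter luminescence divided by renilla, normalised to the plate median, then turned into a robust z-score for each replicate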
- Scale: TNF reporter robust z-score: higher = stronger TNF reporter response to LPS
- Active means: 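Each well counts as active if its z-score is over 2.8 or under -1.5; controls are left without a call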

Knock-down of RBAKDN resulted in: TNF reporter robust z-score -0.01. RBAKDN scored TNF reporter robust z-score 0.9. Depletion of RBAKDN resulted in: TNF reporter robust z-score -0.83. For RBAKDN, the entry reads TNF reporter robust z-score -1.14. Against ZEB1, the entry reads TNF reporter robust z-score -0.42. Depletion of ZEB1 came out at: TNF reporter robust z-score 0.13.

ZEB1 gave TNF reporter robust z-score -0.54. Depletion of ZEB1 came out at: TNF reporter robust z-score -0.6. Against FBXO6 the deposit lists TNF reporter robust z-score -0.34. With knock-down of FBXO6, the record shows TNF reporter robust z-score 0.32. Knock-down of FBXO6 came out at: TNF reporter robust z-score -0.32. With knock-down of FBXO6 the results were TNF reporter robust z-score 2.03.

Against BOK, the values are TNF reporter robust z-score 3.25 (active). Silencing of BOK resulted in: TNF reporter robust z-score 2.65. BOK gave TNF reporter robust z-score 2.94 (active). Against BOK, the values are TNF reporter robust z-score 3.22 (active). Silencing of RIC8B gave: TNF reporter robust z-score -0.37. With knock-down of RIC8B, the screen gave TNF reporter robust z-score -0.59.

RIC8B scored TNF reporter robust z-score -0.12. After knock-down of RIC8B the results were TNF reporter robust z-score -0.85. Against ITPA the deposit lists TNF reporter robust z-score -1.37. Knock-down of ITPA gave: TNF reporter robust z-score -1.22. ITPA gave TNF reporter robust z-score -1.91 (active). ITPA showed TNF reporter robust z-score -1.46.

With knock-down of XKR7, the screen gave TNF reporter robust z-score -0.99. Knock-down of XKR7 resulted in: TNF reporter robust z-score -0.1. XKR7 gave TNF reporter robust z-score -0.61. After knock-down of XKR7, the record shows TNF reporter robust z-score -0.35. PRDM5 showed TNF reporter robust z-score 0.15. Depletion of PRDM5 resulted in: TNF reporter robust z-score 0.68.

For PRDM5 the deposit lists TNF reporter robust z-score -0.01. Silencing of PRDM5 gave: TNF reporter robust z-score -0.81. Against CCN2, the entry reads TNF reporter robust z-score -2.07 (active). Silencing of CCN2 gave: TNF reporter robust z-score 0.75. After knock-down of CCN2, the screen gave TNF reporter robust z-score -1.46. Depletion of CCN2 resulted in: TNF reporter robust z-score -0.97.

Against ZNF300, the entry reads TNF reporter robust z-score 0.53. With knock-down of ZNF300 the results were TNF reporter robust z-score -0.55. Silencing of ZNF300 came out at: TNF reporter robust z-score -0.31. After knock-down of ZNF300 the results were TNF reporter robust z-score 0.09. For CD163, the values are TNF reporter robust z-score -1.42. Against CD163, the entry reads TNF reporter robust z-score -0.07.

For CD163 the deposit lists TNF reporter robust z-score -1.15. CD163 showed TNF reporter robust z-score -0.35. Against TANGO2, the entry reads TNF reporter robust z-score 3.05 (active). Knock-down of TANGO2 resulted in: TNF reporter robust z-score 2.69. Depletion of TANGO2 came out at: TNF reporter robust z-score 2.15. Against TANGO2, the entry reads TNF reporter robust z-score 0.08.

Part of the list above, reformatted:
Gene | TNF reporter robust z-score
XKR7 | -0.99
XKR7 | -0.1
XKR7 | -0.61
XKR7 | -0.35
PRDM5 | 0.15
